PubChem BioAssay AID1259274, Sanger Institute | 2017
Purpose: 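Kinase knock-downs that cut colorectal cancer cell viability or boost drug killing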 (primary screen). Cell system: human RKO colorectal cancer cells. Reagent: siRNA pool against human genes. Treatment: anchor drugs BYL719 at 1 µM, cetuximab at 5 µg/ml or trametinib at 10 nM; DMSO vehicle as the no-drug arm. Measurement: 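Viability of cells versus control pool 2 (non-targeting) averaged across replicates; knock-down-only robust z-score; for every anchor drug (BYL719, cetuximab, trametinib) a synergy score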. Scale: viability z-score, siRNA alone: higher = more viable cells; low values mean essential gene; viability, siRNA alone, vehicle: higher = more viable cells; synergy score with BYL719 and synergy score with Trametinib and synergy score with Cetuximab: higher = stronger combined killing with the drug. Rule for the call: 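a single knock-down scoring under -3 on the robust z-score, meaning fewer cells, counts as essential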. Calls: active = essential when knocked down alone; inactive = no change alone.
In all, the deposit lists 794 reagents; this is an unselected part. 11 of them (1.4%) count as active. 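Calls rest on knock-down without drug only; synergy scores with anchor drugs were not used for the essential call.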 A number with no mark means an inactive call. No viability above 1 is reported: the scale is capped. No sequences are given here. The record does not give: the amount of reagent, the time to read-out.

gene	viability z-score, siRNA alone	viability, siRNA alone, vehicle (fraction of control)	synergy score with BYL719	synergy score with Trametinib	synergy score with Cetuximab
CHD4	-2.93	0.647	-0.00305	0.0785	-0.0347
PIK3C2B	0.404	0.933	-0.0356	-0.175	-0.0426
CDK6	0.349	0.928	-0.0288	-0.0398	0.00786
MAP3K12	-0.252	0.876	-0.121	-0.24	-0.124
MYLK3	1.05	0.988	0.132	-0.0823	0.073
CDK7	1.19	1	0.115	-0.121	0
EFNA3	-0.445	0.86	-0.101	-0.207	-0.107
PRPS1	0.577	0.947	-0.0401	-0.0653	-0.0526
PRKAG2	0.274	0.921	0.0185	-0.214	-0.0248
ELF3	-0.884	0.822	0.00374	-0.122	-0.0817
MKNK2	0.183	0.914	-0.00824	-0.0492	0.0184
PPP2R1A	-0.64	0.843	-0.142	-0.176	-0.026
RIPK2	0.00935	0.899	0.0135	-0.0125	0.0775
PIK3CA	-0.325	0.87	-0.0341	-0.101	0.0342
NME5	0.145	0.91	-0.124	-0.212	-0.0896
PI4K2B	-1.52	0.768	-0.183	-0.0573	-0.119
DAPK2	-0.484	0.857	-0.146	-0.25	-0.0875
MAP3K20	0.512	0.942	-0.124	-0.216	-0.039
PFKP	0.721	0.96	0.0301	-0.105	0.02
NEK3	0.031	0.901	-0.0488	-0.171	-0.0322
LIMK2	0.435	0.935	-0.13	-0.162	0.0439
NME3	-0.512	0.854	-0.131	-0.235	-0.146
MAPK8	1.19	1	-0.0524	-0.0894	0.149
RPS6KB1	-0.992	0.813	-0.21	-0.285	-0.162
CDK18	-2.7	0.666	-0.073	-0.114	0.00443
MOS	0.507	0.941	-0.0104	-0.0793	-0.000406
ACVR1	-0.148	0.885	-0.0463	-0.0647	-0.0357
PCK2	1.07	0.99	0.0473	-0.0267	0.0835
PDK4	0.668	0.955	0.0362	-0.0919	0.0927
ACVR2B	0.162	0.912	-0.0304	-0.195	0.0916
TAOK3	-1.26	0.79	0.018	-0.0058	-0.113
GUK1	-2.09	0.719	-0.107	-0.195	0.0226
CDK8	-0.617	0.845	-0.244	-0.315	-0.155
EXOSC10	0.285	0.922	-0.115	-0.0088	-0.0421
FBXW7	0.399	0.932	0.0284	-0.147	0.00894
PSTK	0.1	0.907	-0.0833	-0.133	0.0222
LMTK3	0.039	0.901	0.0767	-0.0324	-0.0111
KRAS	1.19	1	-0.0675	-0.0157	0.0439
PHKA1	-0.281	0.874	0.0453	-0.164	-0.0184
DCLK1	0.19	0.914	-0.0892	-0.123	0.0267
MAPK11	0.00952	0.899	0.0112	-0.155	-0.0183
HSPB8	-0.462	0.858	-0.047	-0.217	-0.0804
CKB	0.916	0.976	-0.054	-0.258	0.0545
KHK	-0.669	0.841	-0.0676	-0.0708	-0.0811
CSNK1E	0.22	0.917	-0.106	-0.368	-0.0297
CSNK1G2	0.899	0.975	-0.0636	-0.222	-0.0249
CDK10	0.335	0.927	-0.031	-0.108	-0.0475
LATS1	-1.42	0.777	-0.064	-0.0624	0.00227
HIPK3	1.19	1	0.0157	-0.349	0
PRKAG1	0.0967	0.906	-0.125	-0.19	-0.0937

Entries above whose target name starts with K or k:
gene	viability z-score, siRNA alone	viability, siRNA alone, vehicle (fraction of control)	synergy score with BYL719	synergy score with Trametinib	synergy score with Cetuximab
KRAS	1.19	1	-0.0675	-0.0157	0.0439
KHK	-0.669	0.841	-0.0676	-0.0708	-0.0811
